PubChem BioAssay AID743121 – NCATS, 2013

Screen: 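Knock-downs that sensitise breast cancer cells to camptothecin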 (primary screen)
Cells: MDA-MB-231 cells, a human breast cancer line
Reagent: single siRNA against human genes, 20 nM siRNA (0.8 pmol per well)
Time to read-out: 120 h (drug added 48 h after transfection, read 72 h later)
Treatment: camptothecin 20 nM (about EC30) for 72 h; vehicle 0.1% DMSO in parallel plates
Read-out: 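Cell viability by ATP luminescence (CellTiter-Glo) as % of non-targeting siRNA wells, and the log2 ratio of viability without drug over viability with camptothecin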
Scale: log2 vehicle/camptothecin viability: higher = stronger sensitisation to camptothecin
Rule for the call: 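Active genes have an RSA gene-level p-value below 0.001, computed from the ratios of their separate siRNAs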
The whole screen tested about 26,000 reagents; below is a random part of them. 167 of all reagents (0.63%) were called active. 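Calls are per gene from RSA p-values that are not deposited; an individual active-marked siRNA can sensitise only weakly.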 The numbers tell different reagents against one gene apart. Further read-outs or replicates are left out here.

gene symbol	reagent no.	log2 vehicle/camptothecin viability	Outcome
PAX8 (paired box 8)	1	0.116	inactive
PAX8 (paired box 8)	2	-0.477	inactive
PAX8 (paired box 8)	3	-0.0311	inactive
PAX8 (paired box 8)	4	1.33	inactive
PAX8 (paired box 8)	5	-0.369	inactive
PAX8 (paired box 8)	6	0.299	inactive
BST2 (bone marrow stromal cell antigen 2)	1	-0.226	inactive
BST2 (bone marrow stromal cell antigen 2)	2	0.286	inactive
BST2 (bone marrow stromal cell antigen 2)	3	0.766	inactive
BST2 (bone marrow stromal cell antigen 2)	4	-0.34	inactive
CASR (calcium sensing receptor)	1	-0.0648	inactive
CASR (calcium sensing receptor)	2	-0.135	inactive
CASR (calcium sensing receptor)	3	1.23	inactive
CASR (calcium sensing receptor)	4	-0.086	inactive
STAT1 (signal transducer and activator of transcription 1)	1	0.288	inactive
STAT1 (signal transducer and activator of transcription 1)	2	-0.0435	inactive
STAT1 (signal transducer and activator of transcription 1)	3	0.4	inactive
STAT1 (signal transducer and activator of transcription 1)	4	0.504	inactive
LRRC40 (leucine rich repeat containing 40)	1	-0.0107	inactive
LRRC40 (leucine rich repeat containing 40)	2	0.167	inactive
LRRC40 (leucine rich repeat containing 40)	3	0.0787	inactive
HERPUD1	1	0.213	inactive
HERPUD1	2	0.305	inactive
HERPUD1	3	-0.162	inactive
SH2D1A (SH2 domain containing 1A)	1	-0.123	inactive
SH2D1A (SH2 domain containing 1A)	2	1.27	inactive
SH2D1A (SH2 domain containing 1A)	3	0.176	inactive
SH2D1A (SH2 domain containing 1A)	4	0.0232	inactive
HIPK2 (homeodomain interacting protein kinase 2)	1	0.098	inactive
HIPK2 (homeodomain interacting protein kinase 2)	2	-0.268	inactive
HIPK2 (homeodomain interacting protein kinase 2)	3	-0.444	inactive
HIPK2 (homeodomain interacting protein kinase 2)	4	0.294	inactive
TTPA (alpha tocopherol transfer protein)	1	-0.36	inactive
TTPA (alpha tocopherol transfer protein)	2	-0.105	inactive
TTPA (alpha tocopherol transfer protein)	3	-0.581	inactive
FGF3 (fibroblast growth factor 3)	1	0.295	inactive
FGF3 (fibroblast growth factor 3)	2	0.141	inactive
FGF3 (fibroblast growth factor 3)	3	0.103	inactive
GTF2IRD1 (GTF2I repeat domain containing 1)	1	-0.297	inactive
GTF2IRD1 (GTF2I repeat domain containing 1)	2	-0.249	inactive
GTF2IRD1 (GTF2I repeat domain containing 1)	3	0.00877	inactive
GTF2IRD1 (GTF2I repeat domain containing 1)	4	-0.228	inactive
HVCN1 (hydrogen voltage gated channel 1)	1	-0.136	inactive
HVCN1 (hydrogen voltage gated channel 1)	2	0.189	inactive
HVCN1 (hydrogen voltage gated channel 1)	3	-0.511	inactive
CKAP4 (cytoskeleton associated protein 4)	1	0.48	inactive
CKAP4 (cytoskeleton associated protein 4)	2	0.119	inactive
CKAP4 (cytoskeleton associated protein 4)	3	-0.223	inactive
CKAP4 (cytoskeleton associated protein 4)	4	-0.602	inactive
SETD2 (SET domain containing 2, histone lysine methyltransferase)	1	-0.337	inactive
SETD2 (SET domain containing 2, histone lysine methyltransferase)	2	0.385	inactive
SETD2 (SET domain containing 2, histone lysine methyltransferase)	3	-0.34	inactive
SETD2 (SET domain containing 2, histone lysine methyltransferase)	4	-0.168	inactive
AHR (aryl hydrocarbon receptor)	1	-0.608	inactive
AHR (aryl hydrocarbon receptor)	2	-0.0352	inactive
AHR (aryl hydrocarbon receptor)	3	-0.46	inactive
AHR (aryl hydrocarbon receptor)	4	0.0952	inactive
STAT4 (signal transducer and activator of transcription 4)	1	-0.0215	inactive
STAT4 (signal transducer and activator of transcription 4)	2	-0.23	inactive
STAT4 (signal transducer and activator of transcription 4)	3	0.0184	inactive
MAFA (MAF bZIP transcription factor A)	1	-0.25	inactive
MAFA (MAF bZIP transcription factor A)	2	0.000478	inactive
MAFA (MAF bZIP transcription factor A)	3	0.789	inactive
MAFA (MAF bZIP transcription factor A)	4	0.23	inactive
ANGPTL3 (angiopoietin like 3)	1	-0.606	inactive
ANGPTL3 (angiopoietin like 3)	2	-0.156	inactive
ANGPTL3 (angiopoietin like 3)	3	-0.174	inactive
ANGPTL3 (angiopoietin like 3)	4	0.187	inactive

Reformatted: 9 of the entries above
| gene symbol | reagent no. | log2 vehicle/camptothecin viability | Outcome |
| --- | --- | --- | --- |
| CASR (calcium sensing receptor) | 4 | -0.086 | inactive |
| STAT1 (signal transducer and activator of transcription 1) | 1 | 0.288 | inactive |
| STAT1 (signal transducer and activator of transcription 1) | 2 | -0.0435 | inactive |
| STAT1 (signal transducer and activator of transcription 1) | 3 | 0.4 | inactive |
| STAT1 (signal transducer and activator of transcription 1) | 4 | 0.504 | inactive |
| LRRC40 (leucine rich repeat containing 40) | 1 | -0.0107 | inactive |
| LRRC40 (leucine rich repeat containing 40) | 2 | 0.167 | inactive |
| LRRC40 (leucine rich repeat containing 40) | 3 | 0.0787 | inactive |
| HERPUD1 | 1 | 0.213 | inactive |
